Cleaved PARP in drug-treated melanoma cells

From a melanoma drug combination screen (doi:10.1371/journal.pone.0140310); values rounded.

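Human melanoma cells were exposed to two drugs together for 72 h in 1,536-well plates and read by automated microscopy after fixing and staining. Each value is the cleaved-PARP-positive fraction of nuclei relative to DMSO-treated wells, in %, so that 100 equals the control and higher values mean more apoptosis. Concentrations were fixed for each drug; these are the higher of two levels. The file gives one value for each pair and line, without errors, so small differences may be noise. Basal and induced levels differ widely between cell lines.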
This is part of the screen, not chosen by result.

Drug key:
BI-78D3 (1000 nM): O=c1[nH]nc(Sc2ncc([N+](=O)[O-])s2)n1-c1ccc2c(c1)OCCO2
ABT-263 (2000 nM): CC1(C)CCC(c2ccc(Cl)cc2)=C(CN2CCN(c3ccc(C(=O)NS(=O)(=O)c4ccc(N[C@H](CCN5CCOCC5)CSc5ccccc5)c(S(=O)(=O)C(F)(F)F)c4)cc3)CC2)C1
cisplatin (8000 nM): N.N.[Cl][Pt][Cl]
gemcitabine (2 nM): Nc1ccn([C@@H]2O[C@H](CO)[C@@H](O)C2(F)F)c(=O)n1
dasatinib (20 nM): Cc1nc(Nc2ncc(C(=O)Nc3c(C)cccc3Cl)s2)cc(N2CCN(CCO)CC2)n1

Cell line,dasatinib + gemcitabine,cisplatin + dasatinib,cisplatin + BI-78D3,BI-78D3 + dasatinib,BI-78D3 + gemcitabine,cisplatin + gemcitabine,ABT-263 + dasatinib
MZ2-MEL,329,203,107,710,142,247,1300
UACC-257,187,55.1,94.4,59.2,71.3,231,2820
A101D,210,97.5,79.5,91.2,84.5,80.2,165
G-361,335,136,116,107,165,185,437
WM1745,250,162,193,225,307,201,3330
COLO 792,116,112,90.7,215,72.8,136,5630
A2058,491,171,142,222,179,178,318
LB2518-MEL,164,253,49.3,96.3,55.0,87.7,340
C32,800,289,143,1350,77.8,131,1090
COLO 800,336,125,17.0,135,345,522,239
RVH-421,52.4,91.3,520,166,423,414,116
MeWo,312,112,98.3,119,303,291,154
WM3619,193,114,118,127,182,153,132
MEL-HO,356,197,40.5,70.9,139,230,117
RPMI-7951,157,159,94.9,680,207,96.9,430
SK-MEL-28,34.3,198,82.4,121,91.7,35.1,945
WM115,470,423,118,579,159,129,1340
WM1716,142,448,106,173,63.5,138,1490
A375,184,57.1,185,69.1,65.0,256,769
UACC-62,326,13.7,120,306,132,178,219
WM3526,68.8,82.8,62.2,203,74.3,63.7,248
IST-MEL1,267,69.1,163,157,356,398,145
SK-MEL-5,352,284,37.7,253,71.5,65.5,364
WM451Lu,128,65.9,155,171,408,649,296
LOX IMVI,79.7,101,163,228,279,263,409
COLO 829,152,255,90.5,181,728,246,190
IPC-298,343,143,36.7,359,426,137,156
SK-MEL-2,261,80.2,117,90.4,99.9,150,175
SK-MEL-30,122,169,103,102,207,9.8,114

The first 2 entries again:

| Cell line | dasatinib + gemcitabine | cisplatin + dasatinib | cisplatin + BI-78D3 | BI-78D3 + dasatinib | BI-78D3 + gemcitabine | cisplatin + gemcitabine | ABT-263 + dasatinib |
|---|---|---|---|---|---|---|---|
| MZ2-MEL | 329 | 203 | 107 | 710 | 142 | 247 | 1300 |
| UACC-257 | 187 | 55.1 | 94.4 | 59.2 | 71.3 | 231 | 2820 |